Data on four molecules can be found in paper PMC8214149.

Protein sequences, listed by entry. Tags and fused reporters are not part of them.
UniProt P43588: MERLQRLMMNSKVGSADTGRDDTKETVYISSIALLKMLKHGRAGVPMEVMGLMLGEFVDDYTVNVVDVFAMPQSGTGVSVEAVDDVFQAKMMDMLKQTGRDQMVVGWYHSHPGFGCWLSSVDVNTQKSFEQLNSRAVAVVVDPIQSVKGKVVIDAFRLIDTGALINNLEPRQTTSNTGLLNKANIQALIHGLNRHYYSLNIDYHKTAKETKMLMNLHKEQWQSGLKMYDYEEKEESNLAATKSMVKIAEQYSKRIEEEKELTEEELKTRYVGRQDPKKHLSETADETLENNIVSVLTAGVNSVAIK
UniProt Q12495: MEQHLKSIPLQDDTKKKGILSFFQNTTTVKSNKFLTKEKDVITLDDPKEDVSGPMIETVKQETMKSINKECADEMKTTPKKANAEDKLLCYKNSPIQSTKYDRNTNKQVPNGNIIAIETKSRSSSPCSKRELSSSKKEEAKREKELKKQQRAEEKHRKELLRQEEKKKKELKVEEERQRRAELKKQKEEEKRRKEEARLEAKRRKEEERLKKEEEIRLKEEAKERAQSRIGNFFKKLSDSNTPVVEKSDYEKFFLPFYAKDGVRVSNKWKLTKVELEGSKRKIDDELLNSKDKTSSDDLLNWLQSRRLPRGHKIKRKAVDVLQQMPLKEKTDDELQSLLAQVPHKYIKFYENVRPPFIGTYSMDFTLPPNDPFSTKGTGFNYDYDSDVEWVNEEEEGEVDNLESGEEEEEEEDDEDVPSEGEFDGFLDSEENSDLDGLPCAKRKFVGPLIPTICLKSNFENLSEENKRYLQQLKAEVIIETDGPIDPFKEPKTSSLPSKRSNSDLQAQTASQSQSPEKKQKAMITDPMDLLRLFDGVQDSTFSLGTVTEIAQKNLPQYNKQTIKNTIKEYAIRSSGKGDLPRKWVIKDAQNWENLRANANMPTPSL
UniProt P43593: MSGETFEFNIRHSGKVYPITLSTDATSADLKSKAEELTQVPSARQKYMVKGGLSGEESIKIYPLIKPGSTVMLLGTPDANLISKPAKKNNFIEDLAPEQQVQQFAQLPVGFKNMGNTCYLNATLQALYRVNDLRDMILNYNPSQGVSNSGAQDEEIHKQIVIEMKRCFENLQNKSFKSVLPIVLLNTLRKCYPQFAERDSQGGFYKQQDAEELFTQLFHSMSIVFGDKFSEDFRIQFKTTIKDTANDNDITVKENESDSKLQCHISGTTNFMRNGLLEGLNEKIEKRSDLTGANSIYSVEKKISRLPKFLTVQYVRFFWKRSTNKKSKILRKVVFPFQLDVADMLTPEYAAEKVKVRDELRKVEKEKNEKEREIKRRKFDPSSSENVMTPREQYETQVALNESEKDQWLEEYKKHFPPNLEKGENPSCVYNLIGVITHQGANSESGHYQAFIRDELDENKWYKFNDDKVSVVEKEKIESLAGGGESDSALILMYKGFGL
UniProt P38737: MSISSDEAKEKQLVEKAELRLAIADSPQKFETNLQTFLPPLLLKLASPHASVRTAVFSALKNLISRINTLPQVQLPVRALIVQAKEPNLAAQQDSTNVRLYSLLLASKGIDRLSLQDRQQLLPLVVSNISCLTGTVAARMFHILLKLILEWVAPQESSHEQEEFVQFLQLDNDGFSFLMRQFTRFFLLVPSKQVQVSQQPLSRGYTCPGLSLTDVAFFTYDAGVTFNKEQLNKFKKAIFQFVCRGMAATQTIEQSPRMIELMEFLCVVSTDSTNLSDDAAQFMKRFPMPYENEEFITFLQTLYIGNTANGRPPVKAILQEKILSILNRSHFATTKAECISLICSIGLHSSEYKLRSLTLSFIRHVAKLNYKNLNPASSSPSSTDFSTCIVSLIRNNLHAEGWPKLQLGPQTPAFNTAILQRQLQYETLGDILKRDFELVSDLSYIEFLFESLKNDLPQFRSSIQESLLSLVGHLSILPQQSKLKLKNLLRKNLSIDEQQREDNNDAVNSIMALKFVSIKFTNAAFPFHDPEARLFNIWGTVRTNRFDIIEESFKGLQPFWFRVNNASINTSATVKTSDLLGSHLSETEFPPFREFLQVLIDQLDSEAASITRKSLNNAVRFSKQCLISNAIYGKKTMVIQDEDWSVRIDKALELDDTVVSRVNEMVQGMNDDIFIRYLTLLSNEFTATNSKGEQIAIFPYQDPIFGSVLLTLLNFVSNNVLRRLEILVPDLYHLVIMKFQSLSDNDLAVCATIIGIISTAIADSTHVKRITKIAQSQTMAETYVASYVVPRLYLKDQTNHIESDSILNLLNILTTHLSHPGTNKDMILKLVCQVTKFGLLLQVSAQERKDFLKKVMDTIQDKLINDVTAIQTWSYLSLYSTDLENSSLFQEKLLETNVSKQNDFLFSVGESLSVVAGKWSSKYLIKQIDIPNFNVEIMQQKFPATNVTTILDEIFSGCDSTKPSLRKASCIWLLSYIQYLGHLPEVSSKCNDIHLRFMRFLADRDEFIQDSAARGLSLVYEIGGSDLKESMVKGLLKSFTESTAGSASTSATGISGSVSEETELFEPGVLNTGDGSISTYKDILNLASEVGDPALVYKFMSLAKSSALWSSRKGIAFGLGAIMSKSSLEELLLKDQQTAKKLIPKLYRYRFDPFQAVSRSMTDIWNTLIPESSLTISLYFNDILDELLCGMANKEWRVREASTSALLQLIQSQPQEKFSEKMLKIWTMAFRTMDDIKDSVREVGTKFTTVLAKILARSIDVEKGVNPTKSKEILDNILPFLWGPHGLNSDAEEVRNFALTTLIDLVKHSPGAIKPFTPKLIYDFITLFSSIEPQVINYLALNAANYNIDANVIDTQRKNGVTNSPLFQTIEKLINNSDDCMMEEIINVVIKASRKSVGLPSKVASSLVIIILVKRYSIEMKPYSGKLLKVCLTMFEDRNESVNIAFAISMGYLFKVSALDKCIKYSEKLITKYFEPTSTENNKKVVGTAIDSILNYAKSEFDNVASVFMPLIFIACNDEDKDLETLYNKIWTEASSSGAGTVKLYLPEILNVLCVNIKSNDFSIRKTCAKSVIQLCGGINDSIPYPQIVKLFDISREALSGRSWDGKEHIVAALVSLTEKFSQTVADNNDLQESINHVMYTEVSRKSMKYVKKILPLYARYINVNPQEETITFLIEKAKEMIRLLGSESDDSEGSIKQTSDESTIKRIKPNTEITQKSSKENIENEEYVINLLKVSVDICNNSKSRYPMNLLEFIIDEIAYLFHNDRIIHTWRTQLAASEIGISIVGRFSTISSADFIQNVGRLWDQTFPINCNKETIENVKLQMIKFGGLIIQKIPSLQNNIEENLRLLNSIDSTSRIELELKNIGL

These are yes or no findings as the source states them, for the method shown. In cells and extracts the contact can be indirect. A yes stands for co-enrichment or nearness to the bait. Other partners may have been found.

To fix the notation:
B1: Fzo1 (protein, UniProt P38297 1-855)
chain: MSEGKQQFKDSNKPHKDSTDQDDDAATIVPQTLTYSRNEGHFLGSNFHGVTDDRTTLFDGEEGRREDDLLPSLRSSNSKAHLISSQLSQWNYNNNRVLLKRSILKTQAFMDQLQEENNIRPIFIAANDEREKLHVLQLNIKLDGQYNTKEKNGFNIEKKALSKLFHSQIVSVTNHLNALKKRVDDVSSKVFITGDVNTGKSALCNSLLKQRLLPEDQLPCTNVFSEILEARENDGIEEVHAIPLNIAPTLKEAIDMYSIQNPKTYEIHTLKELPDLVPQNGKYALLKIYIKDDKRPASTSLLRNGTVDISLIDSPGLNMDSLQTAEVMSRQEEIDLVIFVVNAENQLTLSAKEFISLASREKKLMFFVVKKFDKIRDKQRCKELILKQIRDLSPETYKRAADFVHFVSKNGDELPHYHNENDNEDHGDRKPDDDPYSSSDPDPDFDSLEDSLRNFVLKKRSLSKLLPAKTYLSKLLSDIIMISKSNMKMYSEEEIKINEQLETLRPEILSARAKCNDLTTSVDQMAEQTITMTYNNTKEALLNALDVPLHEYPKYQGLGQIYDFIFSTEAFIANQIDESIGSSELFAKQKTDLLVKKIYEIGKNELGDDFMCERVFRSELMFRKRKHLIGKRLKVSLSITDLFAPTWKGFLSYLSWQKPVTAPLPDIEGQTNEGQIGLMKYLGLKNYPLTQYWSRPSLLFTSKIPTLTLYFLGSTKVVGNIILNGIKLSSWSSLKKLSVPVIVVGSLLGLTYLIHDLPRALPMNLSIKYKRKLQELDYIHLNAQRTSNEVRDVLRVPTREILRSCEIIMDKKQITKKELENKKESNLLSIKFFQSLYEGTVAQKLMVEEINLDID

The assay deals with Rpn11-TAP (S. cerevisiae (yeast strain)) (UniProt P43588). The assay can be described thus: affinity purification with mass spectrometry; lysate of the RPN11-TAP yeast strain bound to IgG resin 2 h at 4 °C, washed (50 mM sodium phosphate pH 7.4, 100 mM NaCl, 5 mM MgCl2, 1 mM ATP), released with TEV; proteins identified by mass spectrometry.
In the case of Rlf2 (from UniProt Q12495 1-606), the binding result is given as “binds”.

For “Ubp6 (from UniProt P43593 1-499) (enzyme)”, the binding result is “binds”. Regarding Ecm29 (from UniProt P38737 1-1868), the binding result is listed as “binds”. For B1, the binding entry was “binds”.
